No constants are given. Whether binding was seen depends on the method and setting. Binding calls can cover weak binding; strength is not graded here.
Target: HCCR-2 protooncogene protein product (human)
Assay: yeast two-hybrid as stated; no HCCR-2 experiment described

B1: KG-19 protein (protein, not shown: large carriers)
chain: MFVETLWKVWTELLDVLGLDVSNLSQYFSPASVSSSPARALLLVGVVLLAYWFLSLTLGFTFSVLHVVFGRFFWIVRVVLFSMSCVYILHKYEGEPENAVLPLCFVVAVYFMTGPMGFYWRSSPSGPSNPSNPSVEEKLEHLEKQVRLLNIRLNRVLESLDRSKDK
  binding: binds

Source: patent US20040077029A1
